These are yes or no findings as the source states them, for the method shown. Binding seen in cells or lysates may run through a third protein. Some binding calls cover weakened binding; strength is not graded here.
Target: T1, Myristoylated alanine-rich C kinase substrate (MARCKS) (mouse (endogenous in E18.5 mouse brain)) (UniProt P26645)
T1 sequence: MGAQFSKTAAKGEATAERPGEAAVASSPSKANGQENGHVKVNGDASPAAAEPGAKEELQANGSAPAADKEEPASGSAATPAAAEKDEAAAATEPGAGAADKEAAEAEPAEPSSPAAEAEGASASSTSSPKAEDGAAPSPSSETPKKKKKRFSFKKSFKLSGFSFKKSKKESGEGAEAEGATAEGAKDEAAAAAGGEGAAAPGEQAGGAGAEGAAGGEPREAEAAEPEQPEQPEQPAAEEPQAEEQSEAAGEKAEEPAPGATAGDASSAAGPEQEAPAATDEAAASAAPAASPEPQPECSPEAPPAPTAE
Test: co-IP; MARCKS immunoprecipitated from E18.5 mouse whole-brain lysates with anti-MARCKS antibodies (SC6455) on protein A/G agarose (Pierce Crosslink IP kit, crosslinking omitted); blot for CDC42

The chains behind the UniProt entries cited, without tags or fusion partners.
UniProt P60766: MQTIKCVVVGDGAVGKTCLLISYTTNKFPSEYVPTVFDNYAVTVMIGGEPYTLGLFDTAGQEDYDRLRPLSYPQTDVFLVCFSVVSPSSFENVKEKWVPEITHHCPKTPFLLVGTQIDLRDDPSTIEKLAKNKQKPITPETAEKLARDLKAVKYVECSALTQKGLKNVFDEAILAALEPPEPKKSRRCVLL

- binding: binds
Substance: Cell division cycle 42 (CDC42) (from UniProt P60766 1-191)
